No constants are given. Whether binding was seen depends on the method and setting. In cells and extracts the contact can be indirect. Some results given as binding are weak or reduced against the parent protein; the word gives no strength.
Tests used:
[1] = target: PIM1 (human (endogenous in ACHN and 786-O)) (UniProt P11309); assay: co-IP; co-IP of PIM1 and c-Myc (Supplementary Figure 3A and B); precipitating antibody not given; protein G-Sepharose beads, overnight at 4 °C
[2] = target: PIM1 (human (endogenous in ACHN and 786-O)) (UniProt P11309); assay: co-IP; endogenous PIM1 immunoprecipitated with an anti-PIM1 antibody (IgG control) from lysates of ACHN and 786-O cells with control-shRNA or PIM1shRNA; protein G-Sepharose beads, overnight at 4 °C; eluate blotted for p-Smad2 or p-Smad3

Chains of the proteins cited; added tags and fusions are not shown.
UniProt P11309: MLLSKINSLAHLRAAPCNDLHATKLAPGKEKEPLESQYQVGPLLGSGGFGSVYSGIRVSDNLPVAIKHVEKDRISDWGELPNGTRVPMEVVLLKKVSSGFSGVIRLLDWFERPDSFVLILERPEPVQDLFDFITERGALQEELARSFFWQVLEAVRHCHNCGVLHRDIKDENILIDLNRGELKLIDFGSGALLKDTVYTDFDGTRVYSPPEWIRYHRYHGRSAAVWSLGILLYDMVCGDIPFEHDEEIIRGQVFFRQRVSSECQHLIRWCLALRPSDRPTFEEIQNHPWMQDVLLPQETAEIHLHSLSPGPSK
UniProt P01106: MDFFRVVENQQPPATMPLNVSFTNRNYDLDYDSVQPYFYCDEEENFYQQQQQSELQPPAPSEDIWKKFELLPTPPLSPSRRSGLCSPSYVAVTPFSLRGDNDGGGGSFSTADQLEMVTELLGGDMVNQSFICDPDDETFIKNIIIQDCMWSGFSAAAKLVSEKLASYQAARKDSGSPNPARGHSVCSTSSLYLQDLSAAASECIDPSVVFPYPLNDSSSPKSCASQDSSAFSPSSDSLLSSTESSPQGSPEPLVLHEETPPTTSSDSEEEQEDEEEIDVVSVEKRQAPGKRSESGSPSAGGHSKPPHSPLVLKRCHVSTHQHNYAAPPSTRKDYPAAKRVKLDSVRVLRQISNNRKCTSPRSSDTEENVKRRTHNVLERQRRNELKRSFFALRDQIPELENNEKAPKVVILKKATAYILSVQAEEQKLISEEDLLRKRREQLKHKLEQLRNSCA
UniProt P84022: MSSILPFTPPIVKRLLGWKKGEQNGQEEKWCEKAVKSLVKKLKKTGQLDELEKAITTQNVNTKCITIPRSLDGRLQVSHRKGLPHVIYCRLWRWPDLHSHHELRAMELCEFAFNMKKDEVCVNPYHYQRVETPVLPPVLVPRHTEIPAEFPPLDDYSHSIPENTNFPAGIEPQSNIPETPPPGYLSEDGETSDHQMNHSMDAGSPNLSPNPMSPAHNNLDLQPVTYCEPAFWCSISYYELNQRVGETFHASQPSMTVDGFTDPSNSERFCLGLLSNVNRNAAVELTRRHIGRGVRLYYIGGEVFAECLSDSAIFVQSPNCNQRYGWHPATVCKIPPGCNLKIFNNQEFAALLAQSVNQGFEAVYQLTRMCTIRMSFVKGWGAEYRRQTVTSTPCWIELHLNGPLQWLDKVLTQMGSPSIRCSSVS
UniProt Q15796: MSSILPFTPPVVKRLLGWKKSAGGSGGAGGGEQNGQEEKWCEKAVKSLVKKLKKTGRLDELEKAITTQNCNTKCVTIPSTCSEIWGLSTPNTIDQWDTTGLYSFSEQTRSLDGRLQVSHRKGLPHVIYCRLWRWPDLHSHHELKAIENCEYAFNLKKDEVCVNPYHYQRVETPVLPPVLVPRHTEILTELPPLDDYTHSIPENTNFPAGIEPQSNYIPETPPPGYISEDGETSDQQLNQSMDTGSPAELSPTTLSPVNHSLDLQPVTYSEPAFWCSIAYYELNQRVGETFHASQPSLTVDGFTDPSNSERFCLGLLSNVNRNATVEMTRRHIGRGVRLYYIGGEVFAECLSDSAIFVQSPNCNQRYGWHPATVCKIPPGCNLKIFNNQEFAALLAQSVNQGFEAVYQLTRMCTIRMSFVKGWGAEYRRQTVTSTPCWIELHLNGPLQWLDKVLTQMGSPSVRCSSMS

Row | binding [1] | binding [2] | Substance
1 | binds | – | c-Myc (from UniProt P01106 1-454)
2 | – | binds | p-Smad3 (S423 and S425) (from UniProt P84022 1-425)
3 | – | binds | p-Smad2 (S467) (from UniProt Q15796 1-467)
